# Results as given in publication PMC5996148.
# “And” between values parts separate entries of the source, which are not always exact repeats. Identical values can stand only once. This is one part of the list.
# Legend:
# Assay in all cases: protein microarray (ProtoArray v5.0), streptavidin-Alexa Fluor 647
# Conditions in all cases: 3'-biotin; 20 mM Tris (pH 7.5), 5 mM MgCl2, 100 mM KCl, 0.1% Tween-20, A/T-rich and random oligonucleotide blockers; temperature not stated; high values mean tight binding
# [1] = test system: HK1 (human)
# [2] = test system: HKDC1 (human)
# [3] = test system: HLA class I histocompatibility antigen, Cw-7 alpha chain (human)
# [4] = test system: HLA-B (human)
# [5] = test system: HLA-DQA1 (human)
# [6] = test system: HM13 (human)
# [7] = test system: HMG20B (human)
# [8] = test system: HN1 (human)
# [9] = test system: HNT (human)
# [10] = test system: HOOK3 (human)
sequence,measurement,setting,value
GGGAGGCTGAGGCAGG [G4-1 biotinylated (PQS2)],binding signal,[1],-0.344 z-score
same,binding signal,[2],-0.334 z-score
same,binding signal,[3],-0.336 z-score
same,binding signal,[4],-0.284 z-score
same,binding signal,[5],-0.316 z-score
same,binding signal,[6],-0.262 z-score
same,binding signal,[7],-0.321 z-score
same,binding signal,[8],-0.339 z-score and -0.343 z-score
same,binding signal,[9],-0.272 z-score
same,binding signal,[10],-0.287 z-score
